Results from PubChem BioAssay AID248 (DTP/NCI, 2004).
The list does not hold the whole screen: its compounds were picked by chemical class. Not every dose and run of a compound is shown. T/C gives the treated animals as a percentage of the vehicle group. Where survival is the endpoint, the PubChem record calls one and a half times the control and up active, and a quarter to a half above the control has no call in these data; cut-offs in other NCI protocols can differ. Some entries show no survivor count and are marked so; the dose need not have been tolerated. Schedule codes are those of the source, read here as Q, the interval in days (D) or hours (H), X, the number of doses. Some schedule codes hold Z or #, which are not explained here. Some doses were run more than once; their values stand side by side, smallest first.

Test system: L1210 leukemia ip in BDF1 mice, survival T/C
Test: NCI In Vivo Anticancer Drug Screen. Data for tumor model L1210 Leukemia (intraperitoneal) in B6D2F1 (BDF1) mice
Conditions: T/C endpoint: mean survival time, higher T/C = longer survival
[1] = dose: 100.0 mg/kg/injection, schedule: Q01DX001 (ip), vehicle: saline
[2] = dose: 200.0 mg/kg/injection, schedule: Q01DX001 (ip), vehicle: saline

ClCCN(CCCl)c1ccccc1
T/C (dose: 0.5 mg/kg/injection, schedule: Q01DX009 (ip), vehicle: saline): 102 % of control [survivor count not shown] | T/C (dose: 1.0 mg/kg/injection, schedule: Q01DX009 (ip), vehicle: saline): 105 % of control [survivor count not shown] | T/C (dose: 1.0 mg/kg/injection, schedule: Q01DX015 (ip), vehicle: other): 96 % of control [survivor count not shown] | T/C (dose: 2.0 mg/kg/injection, schedule: Q01DX009 (ip), vehicle: saline): 96 % of control [survivor count not shown] | T/C (dose: 2.0 mg/kg/injection, schedule: Q01DX015 (ip), vehicle: other): 102 % of control [survivor count not shown] | T/C (dose: 4.0 mg/kg/injection, schedule: Q01DX009 (ip), vehicle: saline): 120 % of control [survivor count not shown] | T/C (dose: 4.0 mg/kg/injection, schedule: Q01DX015 (ip), vehicle: other): 95 % of control [survivor count not shown] | T/C (dose: 4.0 mg/kg/injection, schedule: Q01DX Z (ip), vehicle: saline): 91 % of control [survivor count not shown] | T/C (dose: 8.0 mg/kg/injection, schedule: Q01DX009 (ip), vehicle: saline): 108 % of control [survivor count not shown] | T/C (dose: 8.0 mg/kg/injection, schedule: Q01DX015 (ip), vehicle: other): 101 % of control [survivor count not shown] | T/C (dose: 16.0 mg/kg/injection, schedule: Q01DX015 (ip), vehicle: other): 106 % of control [survivor count not shown] | T/C (dose: 32.0 mg/kg/injection, schedule: Q01DX015 (ip), vehicle: other): 108 % of control [survivor count not shown] | T/C (dose: 40.0 mg/kg/injection, schedule: Q01DX009 (ip), vehicle: saline with Tween-80): 150 % of control [survivor count not shown] | T/C (dose: 44.0 mg/kg/injection, schedule: Q01DX015 (ip), vehicle: other): 103 % of control [survivor count not shown] | T/C (dose: 50.0 mg/kg/injection, schedule: Q01DX001 (ip), vehicle: other): 118 % of control [survivor count not shown] | T/C (dose: 60.0 mg/kg/injection, schedule: Q01DX009 (ip), vehicle: saline with Tween-80): 93 % of control [survivor count not shown] | T/C (dose: 100.0 mg/kg/injection, schedule: Q01DX001 (ip), vehicle: other): 153 % of control [survivor count not shown] | T/C (dose: 200.0 mg/kg/injection, schedule: Q01DX001 (ip), vehicle: other): 168 % of control [survivor count not shown]

ClCCN(CCCl)Cc1nc2cc(Cl)c(Cl)cc2[nH]1
T/C (dose: 49.0 mg/kg/injection, schedule: Q01DX Z (ip), vehicle: carboxymethylcellulose (CMC)): 103 % of control [survivor count not shown] | T/C (dose: 50.0 mg/kg/injection, schedule: Q01DX001 (ip), vehicle: saline): 102 % of control [survivor count not shown] | T/C (dose: 73.0 mg/kg/injection, schedule: Q01DX Z (ip), vehicle: carboxymethylcellulose (CMC)): 100 % of control [survivor count not shown] | T/C [1]: 107 % of control [survivor count not shown] | T/C [2]: 116 % of control [survivor count not shown]

COc1cc(N(CCCl)CCCl)ccc1C=O
T/C (dose: 100.0 mg/kg/injection, schedule: Q01DX001 (ip), vehicle: Klucel (hydroxypropylcellulose) (HPC)): 101 % of control [survivor count not shown] | T/C (dose: 100.0 mg/kg/injection, schedule: Q01DX009 (ip), vehicle: Klucel (hydroxypropylcellulose) (HPC)): 100 % of control [survivor count not shown] | T/C (dose: 100.0 mg/kg/injection, schedule: Q04DX003 (ip), vehicle: Klucel (hydroxypropylcellulose) (HPC)): 111 % of control [survivor count not shown] | T/C (dose: 200.0 mg/kg/injection, schedule: Q01DX001 (ip), vehicle: Klucel (hydroxypropylcellulose) (HPC)): 101 % of control [survivor count not shown] | T/C (dose: 200.0 mg/kg/injection, schedule: Q01DX009 (ip), vehicle: Klucel (hydroxypropylcellulose) (HPC)): 100 % of control [survivor count not shown] | T/C (dose: 200.0 mg/kg/injection, schedule: Q04DX003 (ip), vehicle: Klucel (hydroxypropylcellulose) (HPC)): 104 % of control [survivor count not shown] | T/C (dose: 400.0 mg/kg/injection, schedule: Q01DX001 (ip), vehicle: Klucel (hydroxypropylcellulose) (HPC)): 101 % of control [survivor count not shown] | T/C (dose: 400.0 mg/kg/injection, schedule: Q01DX009 (ip), vehicle: Klucel (hydroxypropylcellulose) (HPC)): 104 % of control [survivor count not shown] | T/C (dose: 400.0 mg/kg/injection, schedule: Q04DX003 (ip), vehicle: Klucel (hydroxypropylcellulose) (HPC)): 98 % of control [survivor count not shown]

NP(=O)(OCc1ccccc1)N(CCCl)CCCl (centres undefined)
T/C (dose: 40.0 mg/kg/injection, schedule: Q01DX011 (ip), vehicle: water): 96 % of control [survivor count not shown] | T/C (dose: 80.0 mg/kg/injection, schedule: Q01DX011 (ip), vehicle: water): 105 % of control [survivor count not shown] | T/C (dose: 160.0 mg/kg/injection, schedule: Q01DX011 (ip), vehicle: water): 100 % of control [survivor count not shown] | T/C (dose: 250.0 mg/kg/injection, schedule: Q01DX Z (ip), vehicle: water): 116 % of control [survivor count not shown] | T/C (dose: 500.0 mg/kg/injection, schedule: Q01DX Z (ip), vehicle: saline): 109 % of control [survivor count not shown] | T/C (dose: 500.0 mg/kg/injection, schedule: Q01DX Z (ip), vehicle: water): 132 % of control [survivor count not shown] | T/C (dose: 750.0 mg/kg/injection, schedule: Q01DX Z (ip), vehicle: saline): 133 % of control [survivor count not shown]

CC1CCC(N(CCCl)CCCl)CC1 (centres undefined)
T/C (dose: 1.3 mg/kg/injection, schedule: Q01DX001 (ip), vehicle: saline): 106 % of control [survivor count not shown] | T/C (dose: 2.0 mg/kg/injection, schedule: Q01DX001 (ip), vehicle: saline): 110 % of control [survivor count not shown] | T/C (dose: 3.0 mg/kg/injection, schedule: Q01DX001 (ip), vehicle: saline): 115 % of control [survivor count not shown] | T/C (dose: 4.4 mg/kg/injection, schedule: Q01DX001 (ip), vehicle: saline): 120 % of control [survivor count not shown] | T/C (dose: 6.7 mg/kg/injection, schedule: Q01DX001 (ip), vehicle: saline): 122 % of control [survivor count not shown] | T/C (dose: 10.0 mg/kg/injection, schedule: Q01DX001 (ip), vehicle: saline): 121 % of control [survivor count not shown] | T/C (dose: 15.0 mg/kg/injection, schedule: Q01DX001 (ip), vehicle: saline): 106 % of control [survivor count not shown]

CCOC(=O)CNC(=O)C[N+](C)(CCCl)CCCl
T/C (dose: 2.5 mg/kg/injection, schedule: Q01DX Z (ip), vehicle: saline): 107 % of control [survivor count not shown] | T/C (dose: 5.0 mg/kg/injection, schedule: Q01DX Z (ip), vehicle: saline): 102 % of control [survivor count not shown] | T/C (dose: 10.0 mg/kg/injection, schedule: Q01DX Z (ip), vehicle: saline): 93 [survivor count not shown] and 111 % of control [survivor count not shown] | T/C (dose: 20.0 mg/kg/injection, schedule: Q01DX Z (ip), vehicle: saline): 96 % of control [survivor count not shown] | T/C (dose: 40.0 mg/kg/injection, schedule: Q01DX Z (ip), vehicle: saline): 114 % of control [survivor count not shown] | T/C [1]: 109 % of control [survivor count not shown] | T/C [2]: 107 % of control [survivor count not shown] | T/C (dose: 400.0 mg/kg/injection, schedule: Q01DX001 (ip), vehicle: saline): 106 % of control [survivor count not shown]
